This is an account of results in US20170095417A1, “Percutaneous Implement and Method for Manufacturing” (priority 2015, published 2017).

For this series the following is noted: rat, in vivo.

Take `CCN(CC)CC(=O)Nc1c(C)cccc1C` [Lidocaine]: the “Lidocaine detected in the plasma” value was 0.003 to 0.01 mg.
